The chains are these.
B1: 42G9 (antibody, V domains shown)
VH: QVTLKESGPVLLKPTETLTLTCTVSGFSLSNPRMGVSWIRQPPGKALEWFAHIFSTDEKSLKLSLRSRLTLSKDTSKSQVVLTMTNMAPVDSATYYCARDSSNYEGYFDFWGQGTLVTVSS
VL: EVVLTQSPATLSVSPGERATLSCRASQSVRSNLAWYQQKSGQAPRLLIYGSTIRATGVPARFSGSGSGTEFTLTISSLQSEDFAVYYCQQYSDWPFTFGPGTKVDIK
B2: 20E12 (antibody, V domains shown)
VH: EVNLVESGGGLVKPGGSLRLSCEASGFTFSYAWMSWVRQAPGKGLEWVGRIKSIADGGATDYAAPVRNRFTISRDDSRNTLYLEMHSLKTEDTAVYYCTTIPGNDAFDMWGQGTMVTVSS
VL: DIVLTQSPLSLSVTPGEPASISCRSSQSLLYSNGKNYLDWFLHKPGQSPQLLIYLGSNRASGVPDRFSGSGSGIDFILKISRVEAEDVGVYYCMQAQQTPITFGQGTRLEIK
B3: 26B9 (antibody, V domains shown)
VH: EVQLVESWGVLVKPGGSLRLSCAASGFIFNNAWMSWVRQAPGKGLEWIGRIKSKSDGGTTDYAAPVKDRFTISRDDSKDTLYLQMNGLKTEDTAVYFCTTAPGGPFDYWGQGTLVTVSS
VL: DIVLTQSPLSLPVTPGEPASISCRSSQSLLHRDGFNYLDWFLQKPGQSPQLLIYLASSRASGVPDRFSGSDSGTDFTLKISRVEAEDVGVYYCMQALQTPITFGQGTRLEIK
B4: 30D8 (antibody, V domains shown)
VH: EVQLVESGGGLVKPGGSLRLSCEASGFTFSDAWMSWVRQAPGKGLEWVGRIKSKTDGGTTDYVVPLNGRFIISRDDSRNTLYLQLNNLKTEDTAVYYCTTVPGSYGYWGQGTLVTVSS
VL: B3 VL with L4M, R32N, D33K, G34R, F35N, S58N, S70G, D71G, L97Q
B5: 14C11 (antibody, V domains shown)
VH: B1 VH with L12V, S30N, P32A, L61F, K62R, L63T, A88D, S92T, F110Y, T115I
VL: EIVMTQSPATLSVSPGERATLSCRASQSVSNNLAWYQQKPGQAPRLLIYGASTRATGVPARFSGSDSGTEFSLTISSLQSEDFAVYFCQQYKDWPFTFGPGTKVEIK
B6: 21E11 (antibody, V domains shown)
VH: B1 VH with L12V, P32V, T56S, L61I, K62R, L63R, A88D, S92T
VL: DMVVTQSPATLSVSPGERATLSCRASQSVGSDLAWYQQPPGQSPRLLIYGASTRATGVPARFSGSGSGTDFTLTITSLESEDFAVYYCQQYNDWPFTFGPGTKVDIK
B7: 49B11 (antibody, V domains shown)
VH: B1 VH with L12V, P32V, T56S, L61I, K62R, L63R, A88D, S92T, F110Y
VL: B6 VL with D1E, V3E, S28N, V29I, P39Q, P40S, S43A, Y49S, A60T, E79Q
B8: 12H6 (antibody, V domains shown)
VH: B1 VH with L12V, P32A, F50L, L61I, K62R, L63R, A88D, S92T, F110Y
VL: EVVMTQSPATLSVSPGERATLSCRASQGVSSNFAWYQQRPGQSPRLLLYGASTRATGVPGRFSGSGSGTENILTISSLQSEDFAIYFCQQYKDWPFTFGPGSKVDIK
B9: 12B2 (antibody, V domains shown)
VH: QVTLKESGPVLVKPTETLTLTCTVSGFSLSNPRMGVSWIRQPPGKALEWLGHIFSSDEKSYRLSLRSRLSISKDTSKSQVVLTMTNMDPVDTATYYCVRDSSNYGGYFDYWGQGTLVTVSS
VL: EVVMTQSPATLSVSPGERATLSCRASQSVINNLAWYQQKPGQAPRLLIYGTSTRATDIPARFSGSGSGTEFTLTISSLQSEDFAVYYCQDYNNWPFTFGPGTKVDIK
B10: 11F10 (antibody, V domains shown)
VH: B9 VH with T15I, S25C, S64F, V98A, N103D, G105E
VL: EIVMTQSPATLSVSPGERTTLSCRASQSVGSNLAWYQQKPGQAPRLLIYGASTRASGVPARFSGSGSGTEFTLTISSLQSEDFAVYSCQEYNNWPFTFGQGTKVEIK
B11: 29D5 (antibody, V domains shown)
VH: QVTLKESGPVLVKPTETLTLTCTVSGFSLSNPRMGVSWLRQPPGKALEWFAHIFSTDEKSYSPSLRGRLTVSKDTSKSQVVLTLTNMDPVDTATYYCARDSSNYEGYFDYWGQGTLVTVSS
VL: KIVMTQSPATLSVSPGERATLSCRANQIVSSNLAWYQQKPGQAPRLLVFGTSTRATGIPIRFSGSGSGTEFTLTVSSLQSEDFAVYVCQQYNDWPFTFGPGTKVDIK

Changes are numbered by the printed parent chain. These are yes or no findings as the source states them, for the method shown. Some binding calls cover weakened binding; strength is not graded here.

In the first assay the target is human EGFRvIII expressed on cells (human) (UniProt P00533). Nature of the assay: flow cytometry, recombinant human IgG1 antibody on F98-EGFRvIII cells.
On to B1, for which the binding result is listed as “binds”.

The target is the same in another assay. Briefly: flow cytometry on cells expressing EGFRvIII (Table 8B).
For B2, the binding entry is on record as “binds”.

With B3, the binding entry is on record as “binds”.

Turning to B4, the binding result is listed as “binds”.

The target is the same in the next assay. Nature of the assay: flow cytometry on cells expressing EGFRvIII (Table 8A).
B1: the binding entry was “binds”.

For B5, the binding entry is listed as “binds”.

Consider B6, for which the binding entry is given as “binds”.

B7: the binding entry was “binds”.

Consider B8, for which the binding entry is reported as “binds”.

Consider B9, for which the binding result was “binds”.

Turning to B10, the binding result is “binds”.

In the case of B11, the binding result is “binds”.

The record behind these values is US20190144550A1.
